Measured values: patent US6716813B2, “Use of antimicrobial proteins and peptides for the treatment of otitis media and paranasal sinusitis” (priority 2000, dated 2004)
Some results were stated once for a whole list of compounds, not compound by compound.

Tested on: NTHi
Test: ultrastructural analysis (electron microscopy)
Format: cell-based, nontypeable Haemophilus influenzae
Conditions: 1 mg/ml, 3 hour; over 100 EM fields
Protocol: […] The bacterial pellets were left in the fixative at 4° C. for 2 hr, post-fixed in 2% osmium tetroxide, dehydrated in ethanol and embedded in Eponate 12 (Ted Pella, Redding, Calif.). Sections were mounted in coated specimen grids, contrasted with uranyl acetate and lead citrate and examined in a transmission electron microscope (CM120 BioTwin, FEI-Philips, Hillsboro, Oreg.) operating at 80 kV. Images were recorded on photographic film and were subsequently digitized.

human lysozyme [hLz]
bacteria showing signs of membrane damage: at least 30%
